# Test results from article PMC12040169 (PLOS Biology, 2025).
# The other results are listed elsewhere or left out.
# Test system: T1, CTL2-GFP (C. trachomatis L2/434/Bu, GFP-expressing)
# T1 construct: L2/434/Bu, GFP-expressing
# Parameters: species or system HeLa; Intracellular C. trachomatis growth in HeLa cells, bulk GFP fluorescence relative to DMSO
# Conditions: bulk GFP, single well; 28.5 h, 10 µM; inhibitor
row,SMILES,% of control remaining [%]
1,CSc1nc(N)n(-c2cc(C(F)(F)F)cc(C)n2)n1 [CBK005941],128.477
2,COc1cccc(C2C=C(c3cccnc3)Nc3ncnn32)c1OC (centres unmarked) [CBK288062],143.487
3,CC(C)c1nccn1-c1ccc(NC(=O)Cn2ccnc2)cc1 [CBK281381],116.22
4,Cc1sc(NC(=O)CC(C)(C)CC(=O)Nc2sc(C)c(C)c2C(=O)O)c(C(=O)O)c1C [CBK296094],126.923
5,CC(C)C12CN3CC(C(C)C)(CN(C1)C3c1c[nH]c3ccccc13)C2=O (centres unmarked) [CBK263740],108.96
6,O=C(CSc1nnc(-c2ccccn2)[nH]1)NC1CC2CCC1C2 (centres unmarked) [CBK269994],107.214
7,COc1cncc(-c2cc(N3CCN(S(=O)(=O)c4ccc(Cl)cc4)CC3)ncn2)c1 [CBK091162],94.8552
8,COc1ccc(N2CC(NC(=O)Nc3ccccn3)CC2=O)cc1 (centres unmarked) [CBK287642],120.013
9,CCn1cc(Cl)c(C(=O)NC2CCN(c3cc(C)n[nH]3)CC2)n1 [CBK304322],118.299
10,CS(=O)(=O)c1ccc(Cn2c(=O)n(S(=O)(=O)c3ccccc3)c3ccccc32)cc1 [CBK106530],156.513
11,CCN(CC)C(=O)CSc1nnc[nH]1 [CBK026212],128.821
12,O=C(c1cc(F)c(F)cc1F)N1CCC2(CCCN(CCS(=O)(=O)c3ccccc3)C2)C1 (centres unmarked) [CBK132003],107.6
13,O=C(Nc1ccc(F)cc1)c1[nH]c2ccccc2c1NS(=O)(=O)c1ccc(Cl)c(Cl)c1Cl [CBK050091],70.8366
14,O=c1c2c(nc(SCCc3ccccc3)n1CCc1ccccc1)-c1ccccc1CC21CCCCC1 [CBK262661],111.308
15,CC(C)(C)c1cc(CN2CCCCC2)c(C(=O)O)o1 [CBK266556C],151.638
16,Cc1cccc(-c2ncc(C(=O)NCCCN3CCCC3=O)cc2-c2ccco2)c1 [CBK037455],163.146
17,CCn1cc(CN2CCC(O)(c3ccc(C)cc3)CC2)cn1 [CBK282735],127.086
18,O=C(Nc1ccccc1[N+](=O)[O-])C(c1ccccc1)N1CCOCC1 (centres unmarked) [CBK269390],117.807
19,c1cncc(-c2cc(NCCc3ccncc3)ncn2)c1 [CBK037716],96.5059
20,c1ccc(CCCNc2ncc(-c3ccc(N4CCOCC4)cc3)n3ccnc23)cc1 [CBK091223],156.25
21,O=C1NCCCC12CCN(Cc1cccc3ncccc13)CC2 [CBK285033],130.126
22,CCOC(=O)N1CCN(Cc2ccc(OCC3CCCNC3)cc2)CC1 (centres unmarked) [CBK307355],139.117
23,Cc1sc(NC(=S)NC(=O)c2ccco2)c(C(N)=O)c1C [CBK266272],189.891
24,CC(Nc1ncnc2c1cnn2C)c1ccccc1 (centres unmarked) [CBK288093],131.644
25,CN1CCC(N(C)C/C(Cl)=C/c2ccccc2)CC1 [CBK261903],100
26,COCCNC(=O)N1CCN(c2ccccc2)CC1 [CBK155181],101.839
27,O=C(CN1C(=O)COc2ccccc21)NCc1ccco1 [CBK269682],127.408

# Two records drawn at random from the list so far, as already listed:
row,SMILES,% of control remaining [%]
3,CC(C)c1nccn1-c1ccc(NC(=O)Cn2ccnc2)cc1 [CBK281381],116.22
17,CCn1cc(CN2CCC(O)(c3ccc(C)cc3)CC2)cn1 [CBK282735],127.086

# (further entries)

row,SMILES,% of control remaining [%]
1,O=C(O)C1CCCCC1C(=O)N1CCc2ccccc2C1 (centres unmarked) [CBK286594],98.0746
2,O=C(Nc1ncc(-c2ccccc2)s1)c1csc([N+](=O)[O-])c1 [CBK298293],132.813
3,Cc1ccccc1C1(O)CCN(CC(O)c2ccc3c(c2)CCC3)CC1 (centres unmarked) [CBK286329],111.697
4,O=C(Cc1ccccc1)N1CCN(S(=O)(=O)N2CCCCC2)CC1 [CBK269097],154.756
5,Cc1onc(-c2ccccc2Cl)c1C(=O)N(Cc1nc(-c2ccccc2)no1)C(C)C [CBK269289],79.6621
6,CCn1c(=O)n(CCC(N)=O)c2cc(S(=O)(=O)N(C)C)ccc21 [CBK305577],139.953
7,O=C(NS(=O)(=O)c1cccc(-c2nnco2)c1)C1CC1C1CCCCC1 (centres unmarked) [CBK305924],17.3338
8,O=C(O)c1ccc(N2C(=O)CC(N3CCN(c4cccc(C(F)(F)F)c4)CC3)C2=O)cc1 (centres unmarked) [CBK287228],142.985
9,CCCN1CCN(S(=O)(=O)c2ccc(C)cc2)CC1 [CBK270326],137.103
10,COc1cccc2ncn(CCCc3nc(C)c(C)s3)c(=O)c12 [CBK307208],130.854
11,COc1cccc(OC)c1-c1cn2ccnc2c(NC2CC2)n1 [CBK038020],205.551
12,Cc1cc(NC(=O)N2CCCN(CC3CCCCC3)CC2)no1 [CBK306239],141.389
13,O=C(CCNS(=O)(=O)c1ccc(Cl)cc1)Nc1ccncc1 [CBK269244],143.583
14,Cc1ccc(C)c(-n2nnnc2SCC(=O)c2ccc(Cl)cc2Cl)c1 [CBK141941],88.1044
15,Cc1ccc(-c2nnc(-c3cccc(S(=O)(=O)N4CCOCC4)c3)o2)cc1 [CBK263215],101.346
16,COC(=O)NC(O)C(=O)c1ccco1 (centres unmarked) [CBK027757],108.312
17,CC1(C)CC(NC(=O)Cn2ccc3ccccc32)CCO1 (centres unmarked) [CBK304347],134.606
18,CC(=O)c1sc(=S)n(N(C)C)c1C [CBK006774],109.028
19,OC(COc1ccccc1)CN1CCN(Cc2ccccc2)CC1 (centres unmarked) [CBK074852C],127.284
20,COc1ccc2[nH]cc(C3CCN(Cc4nc(C)no4)CC3)c2c1 [CBK305982],131.255
21,CCN(CC)C(=O)CN1CCN(c2nccnc2OCc2ccc(Cl)c(Cl)c2)CC1 [CBK083081T],115.256
22,Cc1cc(C(=O)NC(C)C2CC3CCC2C3)c2cnn(C(C)C)c2n1 (centres unmarked) [CBK281652],104.032
23,CC(=O)c1ccc(-c2nccnc2NCc2cccc([N+](=O)[O-])c2)s1 [CBK037509],76.0756
24,CN1CCN(CC(=O)Nc2ccc(OCc3ccccc3)cc2)CC1 [CBK264844],110.804
25,CCOC(=O)Nc1ccc(S(=O)(=O)Nn2cnnc2)cc1 [CBK262138],99.155
26,CC(C)C(C(=O)Nc1ccc(S(=O)(=O)Nc2nccs2)cc1)N1C(=O)c2ccccc2C1=O (centres unmarked) [CBK265707],100
27,COc1ccc(S(=O)(=O)Nc2cccc(C(=O)O)c2)cc1C(=O)O [CBK264069],119.655

# Rewritten as tab-separated lines: 3 of the compounds above.
row	SMILES	% of control remaining [%]
10	CS(=O)(=O)c1ccc(Cn2c(=O)n(S(=O)(=O)c3ccccc3)c3ccccc32)cc1 [CBK106530]	156.513
15	CC(C)(C)c1cc(CN2CCCCC2)c(C(=O)O)o1 [CBK266556C]	151.638
16	Cc1cccc(-c2ncc(C(=O)NCCCN3CCCC3=O)cc2-c2ccco2)c1 [CBK037455]	163.146

# More entries follow:

row,SMILES,% of control remaining [%]
1,CC(=O)N(C)c1nc(-c2ccccc2)ccc1C(=O)Nc1ccc2c(c1)OCO2 [CBK106342],127.639
2,Cc1cc2nnn(C[C@@H](C)NC(=O)c3ccco3)c2cc1C [CBK282366],123.38
3,O=C(Cc1c(Cl)cccc1Cl)Nc1ccc2[nH]ccc2c1 [CBK159664],131.321
4,CC1(CNC(=O)C2CC(=O)N(C3CCCCC3)C2)COC1 (centres unmarked) [CBK281754],83.3786
5,CC(=O)N(C)c1ncc(Br)cc1C(=O)NCc1nc2ccccc2[nH]1 [CBK076522],154.36
6,COc1ccc(OC)c(NC(=O)CSc2nnc(-c3ccncc3)n2C)c1 [CBK266623],148.185
7,O=C(O)c1ccc(/C=N/N2CCN(Cc3ccc(Cl)cc3)CC2)cc1 [CBK263561],125.685
8,Fc1ccc(Oc2nccnc2N2CCN(CC3CC3)CC2)cc1 [CBK083033T],113.871
9,CN(C)CCCO/N=C1\CC2(CCCC2)c2ccccc21 [CBK013331],135.411
10,Cc1ccccc1-c1ccccc1CC1(C(=O)N(C)C)CCN(C(=O)CC(C)C)CC1 [CBK285714],121.127
11,Cc1ccc(C(=O)C2=C(O)C(=O)N(CCCn3ccnc3)C2c2cccc([N+](=O)[O-])c2)cc1 (centres unmarked) [CBK263319],107.888
12,Clc1ccc(-c2noc(-c3ccco3)n2)cc1 [CBK026405],120.798
13,Cc1ccc(S(=O)(=O)N(CC(=O)O)c2cccc(Cl)c2)cc1 [CBK262387],113.711
14,Cc1ccc2[nH]c3c(c2c1)CCOC31CCN(Cc2ccccc2-c2ccccc2)CC1 [CBK039915],34.3876
15,O=C(O)c1ccc(CNCc2ccc(-c3ccc(F)cc3)o2)cc1 [CBK269622C],136.291
16,CCCNC(=O)c1cc(C2CCCN(Cc3ccccc3)C2)no1 (centres unmarked) [CBK283388],140.559
17,O=C(OCc1nnsc1Cl)c1ccc(C(=O)c2ccccc2)cc1 [CBK297897],101.961
18,COc1ccc(Br)cc1S(=O)(=O)Nc1nc(C)c(C(=O)O)s1 [CBK045558],64.8937
19,CCC(=O)NCCc1cc2ccc(C)cc2[nH]c1=O [CBK287434],147.926
20,Cc1n[nH]c(C)c1CCC(=O)N/N=C\c1cccc(Oc2ccccc2)c1 [CBK263384],101.31
21,Cc1c(C#N)sc(-c2nc[nH]n2)c1C [CBK005952],135.905
22,CC(C)NC(=O)NC1CCCc2nc(N3CCC(CO)CC3)ncc21 (centres unmarked) [CBK307002],129
23,O=C(Cn1ccc(=O)[nH]c1=O)NCc1ccc(OCC(F)(F)F)cc1 [CBK305041],76.2135
24,COCOc1ccc(-c2nccnc2OCCN2C(=O)c3ccccc3C2=O)cc1 [CBK106913],125.416
25,CC(=O)c1ccc(NC(=O)[C@@]2(CC(=O)O)CC(c3ccc(F)cc3)=NO2)cc1 [CBK286663],121.253
26,CC1(C)CC(=O)C2=C(C1)Nc1[nH][nH]c(=O)c1C2c1ccccn1 (centres unmarked) [CBK288463],158.573
